Laboratory results reported in paper PMC4258286.
No constants are given. Whether binding was seen depends on the method and setting. Some binding calls cover weakened binding; strength is not graded here.

Amino acid sequences for entries named in this document (tags omitted). Residues count along the entry.
UniProt Q80ZV0, residues 111-308: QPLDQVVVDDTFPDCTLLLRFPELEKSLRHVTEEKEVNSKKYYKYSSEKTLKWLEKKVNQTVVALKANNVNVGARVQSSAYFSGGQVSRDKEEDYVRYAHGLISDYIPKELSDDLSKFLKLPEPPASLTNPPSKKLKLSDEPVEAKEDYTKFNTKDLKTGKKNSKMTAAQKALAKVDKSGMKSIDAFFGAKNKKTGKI
UniProt Q9CQ22: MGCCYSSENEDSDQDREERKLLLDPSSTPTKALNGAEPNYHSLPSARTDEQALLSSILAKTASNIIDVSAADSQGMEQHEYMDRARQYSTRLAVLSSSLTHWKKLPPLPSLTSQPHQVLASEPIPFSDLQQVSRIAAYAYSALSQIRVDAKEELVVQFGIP

Biological target: integrin-like A domain of Toxoplasma gondii micronemal protein MIC2 (residues 74-270), GAL4 DNA-binding domain fusion from pGBKT7-A/I (Toxoplasma gondii (RH strain)) (UniProt O00816)
Assay: two-hybrid; Matchmaker Gold system: Y2HGold with bait pGBKT7-A/I mated with Y187 carrying the mouse cDNA library (24 h, 30°C), selection on DDO/X/A then QDO/X/A; each prey plasmid retested by co-transformation with the bait into Y2HGold on QDO/X/A, blue colonies positive

Substance | binding
ribonuclease H2 subunit B (RNaseH2B), mouse, C-terminus (residues 111-308), prey from the cDNA library (from UniProt Q80ZV0 111-308) (domain or fragment) | binds
late endosomal/lysosomal adaptor, MAPK and mTOR activator 1 (LAMTOR1), mouse, prey from the cDNA library (from UniProt Q9CQ22 1-161) | binds
